Experimental data published in PubChem BioAssay (NCATS).
The shares of active, inactive and inconclusive entries below differ from those in the screen. A potency beside an inconclusive call is a rough fit, not a confirmed value. Calls of active or inactive are those of the source. Calls come from the whole dose curve; as a rule, active = well fitted inhibition curve with a large enough effect; inconclusive = small, poorly fitted or top-dose-only effect, or effect the other way; inactive = no such curve, though single readings can be large or run the other way.

Assay: qHTS Assay for Inhibitors of Fructose-1,6-bisphosphate Aldolase from Giardia Lamblia: Giardia lamblia growth inhibition (AID 2785); note: nearly all actives have a fitted effect of over 70% in size
Settings: Giardia lamblia trophozoite growth inhibition; activity change, negative = inhibition: at 57.5 µM (top of the series)
Method in brief: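 G. lamblia WB trophozoites (100 cells/well) in modified TYI-S-33 medium, pH 7.0, were exposed to pin-transferred compounds or DMSO for 48 h at 37C in sealed bags. Viability was read as ATPlite luminescence after 20 min at room temperature.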
% is set by controls: 0 for no effect and ±100 for the full control effect; potency is the fitted concentration of half-maximal effect.

Potency, active:
CN(C)c1ccc(NC2=C(Cl)C(=O)c3ccccc3C2=O)cc1 11.3 µM
Cc1ccc(S(=O)(=O)/N=C2/C=C(Sc3ncn[nH]3)C(=O)c3ccccc32)cc1 7.08 µM
Cc1cc(C)c(S(=O)(=O)/N=C2/C=C(Sc3ncn[nH]3)C(=O)c3ccccc32)cc1C 14.1 µM

Potency, inconclusive:
CNc1nc(-c2ccccc2)[n+](-c2ccc(C)cc2)s1 22.4 µM [inhibitor, partial curve, poor fit]
COc1ccc(C2CC(=O)N3CN(c4ccccc4F)CSC3=C2C#N)cc1OC (stereo not given) 63.1 µM [inhibitor, single point]
CN1CCN(C(=S)c2ccc(N(C)C)cc2)CC1 44.7 µM [inhibitor, partial curve, poor fit]
CCC(C)c1ccc(NC(=O)CN(C)CC(=O)Nc2cccc(OC)c2)cc1 (stereo not given) 31.6 µM [inhibitor, partial curve, poor fit]
CCc1nnc(N/N=C/c2ccc(N3CCC(C)CC3)c([N+](=O)[O-])c2)n1N 35.5 µM [inhibitor, single point]
Cc1ccc(C(=O)Nc2ncc([N+](=O)[O-])s2)cc1 39.8 µM [inhibitor, partial curve, poor fit]
c1ccc2c3c(cc(N4CCOCC4)c2c1)OC1(N2CCOCC2)CCCCC1O3 (stereo not given) 39.8 µM [inhibitor, single point]
Cc1ccc(S(=O)(=O)Nc2cc(C)cn(Cc3ccccc3)c2=O)cc1 89.1 µM [inhibitor, single point]
CCOC(=O)c1cnc(-c2ccccc2O)nc1Cl 89.1 µM [inhibitor, partial curve, poor fit]
Cc1ccc(C(=O)Nc2nnc(S(=O)(=O)N3CCOCC3)s2)cc1 20 µM [inhibitor, single point]
COc1cc(CN2CCN(C(=O)CC(C)C)CC2)cc(OC)c1O 6.31 µM [inhibitor, partial curve, poor fit]
O=[N+]([O-])c1cc(F)c2cccnc2c1O 31.6 µM [inhibitor, single point]
O=c1[nH][nH]c(=S)n1-c1ccccc1C(F)(F)F 224 µM [inhibitor, partial curve, poor fit]
O=C(O)CCCNc1cc(N2CCN(C(=O)c3ccco3)CC2)c2noc3c2c1C(=O)c1ccccc1-3 63.1 µM [inhibitor, partial curve, poor fit]

2 neighbouring compounds out of the list so far, for reference:
Potency, inconclusive:
CN1CCN(C(=S)c2ccc(N(C)C)cc2)CC1 44.7 µM [inhibitor, partial curve, poor fit]
CCC(C)c1ccc(NC(=O)CN(C)CC(=O)Nc2cccc(OC)c2)cc1 (stereo not given) 31.6 µM [inhibitor, partial curve, poor fit]

Following part.

Activity change, negative = inhibition, inactive:
O=C(NCCO)c1cc2ccccc2cc1O -10.7% [at 38.3 µM]
COc1ccccc1NS(=O)(=O)c1cc(NC(=O)c2sccc2C)ccc1N1CCCC1 -12.1% [at 10.4 µM]
O=S(=O)(NNc1nccc(C(F)(F)F)n1)c1cccc(Cl)c1Cl 23.4%
COc1cc(/C=C(\C#N)C(=O)c2c[nH]c3ccccc23)cc(OC)c1O -18.2%
Cc1ccc(C=C2C(Cl)=C(Cl)C(Cl)=C2Cl)cc1 -10.4% [at 10.4 µM]
COc1ccc(OC)c(C2CC(=O)N3CN(c4ccc(C)c(Cl)c4)CSC3=C2C#N)c1 (stereo not given) -7.33% [at 10.4 µM]
COc1ccc(N)cc1-n1c(C)ccc1C 12.1% [at 38.3 µM]
Oc1ccc(C2C[C@H]3CC[C@@H]2C3)cc1O (stereo not given in full) -18.2%
COc1ccc(/C=N/NC2=NS(=O)(=O)c3ccccc32)cc1OC(C)=O 12% [at 38.3 µM]
O/N=C/c1ccc2cccc(O)c2n1 9.36% [at 10.4 µM]
C(=C\CSc1ncn[nH]1)/CSc1ncn[nH]1 0.418% [at 38.3 µM]
CCCn1cnc2c(=S)nc(N)[nH]c21 1.51% [at 38.3 µM]
COC(=O)c1c(-c2ccc(OC)c(OC)c2)csc1N -29.7%
O=S(=O)(Nc1ccc(Cl)cc1)c1ccc(N2CCOCC2)c(NC(=S)NCCN2CCOCC2)c1 -0.797% [at 38.3 µM]
CCOc1ccc(N=Nc2ccc(O)c3ncccc23)cc1 16.7% [at 38.3 µM]

Activity change, negative = inhibition, inconclusive:
CCn1c(O)c(C#N)c(C)cc1=O 52.7% [activator]
COc1ccc(CN2CCN(C(C)C(=O)N(C)Cc3cccc(F)c3)CC2)cc1OC (stereo not given) 84.6% [activator]
N#Cc1c(N)sc(=S)c2c1CCCC2 45.6% [activator]
